The values that follow come from patent publication US20090074774A1, “Fgfr binding peptides” (priority 2004, published 2009).

The assay has as its target recombinant FGFR1 Ig modules 2, 3 (expressed in Drosophila S2 cells) (Homo sapiens (Human)). The assay can be described thus: SPR (BIAcoreX), FGFR Ig modules 2, 3 amine-coupled to CM5 chip, peptide injected, blank flow cell subtracted.

No constants are given. Whether binding was seen depends on the method and setting. A result given as binding can be weak or reduced; the word gives no strength.

As to SIDRVEPYSSTAQVQFD [ABL peptide (…, SEQ ID NO: 2), A strand-loop-B strand of NCAM F3, 1 module], the binding result is given as “binds”.

For the molecule KAEWKSLGEEAWHSK [CDL peptide (…, SEQ ID NO: 1), C strand-loop-D strand of NCAM F3, 1 module], the binding result is given as “binds”.
